A word on the IC50: it is the concentration at which inhibition is half-maximal.

The test system of test [1] is T. cruzi intracellular amastigotes. The experiment in a line: Image-based assay of the number of T. cruzi infected cells (intracellular amastigotes in 3T3 host cells). In kind it is cell-based. To be noted: Trypanosoma cruzi; 48 hours exposure; well-established intracellular infection assay; mean ± SD; POSA value based on sub-optimal effect (Emax 75%); read-out: IC50 value Infected cells (Hoechst). How it is done: Parasites and host cells were maintained as outlined previously. Briefly, host 3T3 fibroblasts (ATCC, CCL-92) were grown in RPMI medium (Thermo Fisher Scientific, USA) with no phenol red, supplemented with 10% FBS (Thermo Fisher Scientific, USA) and incubated at 37°C in 5% CO2. Host cells were harvested at 70% confluency and were split every 2–3 days in 175 cm^2 flasks. 3T3 cells were cultured up to passage 7 as contact inhibition was reduced or lost at higher passages. Prior to infection with T. cruzi trypomastigotes, host cells were seeded at 1.2 x 10^6 cells in 75 cm^2 or 4 x 10^5 cells in 25 cm^2 flasks and grown for 24 hours before parasite addition. […]
The activity of the nucleoside analogues against T. cruzi intracellular amastigotes following 24, 48 hours exposure and compound wash off, was determined using image-based techniques as previously described. […]
IC50 values for inhibitory activity of both the nucleoside analogues tested as DNA probes and known inhibitors tested to determine their effect on replication of T. cruzi were calculated in GraphPad Prism 5, using sigmoidal dose response with variable slope. […] The p-value for difference in the % activity at Emax concentrations for compounds with known activity (EdU identified parasites, compared to Hoechst identified parasites) against T. cruzi was determined using GraphPad Prism 5, using an unpaired student’s t-test. […]

Test [2] shares this test system. In words: Detection of T. cruzi replication following exposure to inhibitors (EdU incorporation vs Hoechst). In kind it is cell-based, Trypanosoma cruzi. To be noted: for IC50: Trypanosoma cruzi, 48 hours exposure, mean ± SD. On the procedure:
The addition of host cells, parasites and compounds were as described for the T. cruzi image based method previously reported. […] Addition of nuclear and cytoplasmic dyes was undertaken as previously reported and images captured on an Opera confocal image-based system at 20x magnification. Image analysis was performed with a script developed in Columbus software (CHEMICAL LABEL INCORPORATION SCRIPT). Control wells were also imaged at an increased, 60x magnification to show the distribution of staining and the structure of the parasites within host cells. Eight background control wells consisted of infected host cells, fixed and exposed to Hoechst and the click chemistry cocktail, without the addition of the chemical probe EdU. […] All images taken were not modified and were taken on an Opera, confocal image-based reader. […] Results are given ± standard deviation and mean values were taken from two experimental replicates.

Counter-ions that a name gives are not always drawn.

Consider `CN1CCC[C@@H]1CCO[C@](C)(c1ccccc1)c1ccc(Cl)cc1` [CF, clemastine fumarate], for which the IC50 in test [1] was determined as 560 ± 46 nM; in test [2] (then 0.37 μM EdU for 4 hours, number of EdU incorporating parasites, read-out: IC50 value Amastigotes (EdU)) it was 460 ± 100 nM; in test [2] (number of Hoechst identified parasites in infected cells, read-out: IC50 value Amastigotes (Hoechst)), 430 ± 31 nM. Further, in test [2] (2 hours exposure, 45 x the IC50 value, then 1.83 μM EdU 2 hours), the “inhibition of EdU incorporation” value is given as less than 20%.

Values taken from article PMC7112222, “Investigation of pyrimidine nucleoside analogues as chemical probes to assess compound effects on the proliferation of Trypanosoma cruzi intracellular parasites” (PLoS Neglected Tropical Diseases, 2020).
